Measurements reported in patent publication US7094554.
Results are given in words; binding and its absence hold for the method and conditions named. Some entries that bind do so weakly or less than the wild type.

Chains of the proteins cited; added tags and fusions are not shown. Residues count along the entry.
UniProt P0A366, residues 29-619: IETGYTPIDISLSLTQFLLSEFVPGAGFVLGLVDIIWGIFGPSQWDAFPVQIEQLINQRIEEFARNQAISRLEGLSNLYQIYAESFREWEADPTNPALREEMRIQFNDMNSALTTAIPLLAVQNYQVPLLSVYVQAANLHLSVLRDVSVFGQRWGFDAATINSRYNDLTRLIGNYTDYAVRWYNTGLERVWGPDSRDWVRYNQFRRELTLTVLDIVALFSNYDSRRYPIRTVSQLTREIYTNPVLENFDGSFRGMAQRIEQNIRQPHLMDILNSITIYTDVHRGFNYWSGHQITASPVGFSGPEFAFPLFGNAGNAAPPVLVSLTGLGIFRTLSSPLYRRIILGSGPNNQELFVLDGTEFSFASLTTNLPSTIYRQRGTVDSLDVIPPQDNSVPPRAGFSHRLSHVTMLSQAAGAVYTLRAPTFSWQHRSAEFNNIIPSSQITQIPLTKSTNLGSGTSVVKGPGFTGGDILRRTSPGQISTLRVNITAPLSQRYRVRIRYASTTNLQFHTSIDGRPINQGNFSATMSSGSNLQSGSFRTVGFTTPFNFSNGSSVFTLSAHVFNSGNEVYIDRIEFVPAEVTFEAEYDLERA

Experiments:
[1] = biological target: 200 kD Cry1A toxin-binding protein of P. gossypiella BBMV (native BT-R2) (Pectinophora gossypiella); assay: radioligand blot of BBMV proteins
[2] = biological target: 200 kD Cry1A toxin-binding protein of P. gossypiella BBMV (native BT-R2) (Pectinophora gossypiella); assay: ligand blot of PBW BBMV proteins
[3] = biological target: T1, PBW-866 expressed protein (BT-R2 aa 1210-1496), 32 kD (Pectinophora gossypiella); assay: ligand blot of E. coli-expressed fragment
T1 sequence: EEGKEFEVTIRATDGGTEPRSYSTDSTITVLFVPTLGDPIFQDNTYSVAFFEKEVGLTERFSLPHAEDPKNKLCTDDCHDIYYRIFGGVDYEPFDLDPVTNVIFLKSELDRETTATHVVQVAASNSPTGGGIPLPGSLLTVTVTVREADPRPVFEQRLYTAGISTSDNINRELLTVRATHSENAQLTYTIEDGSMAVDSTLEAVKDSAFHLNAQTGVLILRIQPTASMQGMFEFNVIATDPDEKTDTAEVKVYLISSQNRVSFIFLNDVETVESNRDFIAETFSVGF

[4] = biological target: T1, PBW-866 expressed protein (BT-R2 aa 1210-1496), 32 kD (Pectinophora gossypiella); assay: blot incubated with Cry1Ab toxin, then antiserum to the toxin
[5] = biological target: 200 kD Cry1A toxin-binding protein of P. gossypiella BBMV (native BT-R2) (Pectinophora gossypiella); assay: two-dimensional gel of the electroeluted 200 kD band, ligand blot
[6] = biological target: 200 kD Cry1A toxin-binding protein of P. gossypiella BBMV (native BT-R2) (Pectinophora gossypiella); assay: immunoprecipitation with Cry1Ab and anti-toxin-protein A-Sepharose, then radioligand blot and Western blot
[7] = biological target: T1, PBW-866 expressed protein (BT-R2 aa 1210-1496), 32 kD (Pectinophora gossypiella); assay: competition ligand blot
[8] = biological target: Full-length PBW BT-R2 expressed in COS-7 cells (Pectinophora gossypiella); assay: immunofluorescent labeling of transfected COS-7 cells with Cry1Ab antibodies
[9] = biological target: 200 kD Cry1A toxin-binding protein of P. gossypiella BBMV (native BT-R2) (Pectinophora gossypiella); assay: immunoprecipitation of BBMV proteins with anti-Cry1Ab antiserum, then ligand blot
[10] = biological target: PBW-1269-1367, minimum binding fragment of BT-R2 (aa 1269-1367) (Pectinophora gossypiella); assay: truncation fragments tested for toxin binding
[11] = biological target: PBW-1269-1367, minimum binding fragment of BT-R2 (aa 1269-1367) (Pectinophora gossypiella); assay: truncation peptides tested for toxin binding (FIG. 4)

Measured: binding

Cry1Aa toxin (trypsinized 60 kD toxin) (from UniProt P0A366 29-619) (ligand)
binds: [1] | [2]

Cry1Ab toxin (trypsinized 60 kD toxin) (from UniProt P0A370 29-620) (ligand)
binds: all assays above
